## Drug screen on melanoma cell lines: apoptosis marker

From a melanoma drug combination screen (doi:10.1371/journal.pone.0140310); values rounded.

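Human melanoma cells were exposed to two drugs together for 72 h in 1,536-well plates and read by automated microscopy after fixing and staining. Each value is the cleaved-PARP-positive fraction of nuclei relative to DMSO-treated wells, in %, so that 100 equals the control and higher values mean more apoptosis. Concentrations were fixed for each drug; these are the higher of two levels. These are primary screening values without error estimates. Basal and induced levels differ widely between cell lines.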
Only some of the drugs and lines screened are listed, without regard to their results.
An entry leaves out what has no value listed here.
A dash means that no value is listed here.

Compounds and concentrations:
L-779450: Oc1cc(-c2nc(-c3ccccc3)[nH]c2-c2ccncc2)ccc1Cl at 1 µM
cisplatin: N.N.[Cl][Pt][Cl] at 8 µM
enzastaurin: Cn1cc(C2=C(c3cn(C4CCN(Cc5ccccn5)CC4)c4ccccc34)C(=O)NC2=O)c2ccccc21 at 4 µM
FH535: Cc1cc([N+](=O)[O-])ccc1NS(=O)(=O)c1cc(Cl)ccc1Cl at 5 µM
GSK650394: O=C(O)c1ccc(-c2c[nH]c3ncc(-c4ccccc4)cc23)cc1C1CCCC1 at 0.8 µM
OSU-03012: NCC(=O)Nc1ccc(-n2nc(C(F)(F)F)cc2-c2ccc3c(ccc4ccccc43)c2)cc1 at 5 µM
KU-0063794: COc1ccc(-c2ccc3c(N4CCOCC4)nc(N4C[C@@H](C)O[C@@H](C)C4)nc3n2)cc1CO at 0.1 µM
XAV939: Oc1nc(-c2ccc(C(F)(F)F)cc2)nc2c1CSCC2 at 10 µM
A-769662: N#Cc1c(O)c2c(-c3ccc(-c4ccccc4O)cc3)csc2[nH]c1=O at 10 µM
dorsomorphin: c1cc(-c2cnn3cc(-c4ccc(OCCN5CCCCC5)cc4)cnc23)ccn1 at 2 µM
perifosine: CCCCCCCCCCCCCCCCCCOP(=O)([O-])OC1CC[N+](C)(C)CC1 at 2 µM
NVP-TAE684: COc1cc(N2CCC(N3CCN(C)CC3)CC2)ccc1Nc1ncc(Cl)c(Nc2ccccc2S(=O)(=O)C(C)C)n1 at 0.4 µM

| # | Drugs | MEL-HO | 501mel | WM115 | MZ2-MEL | UACC-257 | RVH-421 | COLO 800 | IPC-298 | WM451Lu | COLO 829 |
|---|---|---|---|---|---|---|---|---|---|---|---|
| 1 | enzastaurin + FH535 | 198 | - | 83.0 | - | 161 | 120 | 105 | 66.6 | 67.6 | 113 |
| 2 | L-779450 + KU-0063794 | 251 | 111 | 116 | 212 | 54.2 | 345 | 90.0 | 27.0 | 380 | 367 |
| 3 | cisplatin + perifosine | 122 | - | 52.2 | 169 | 181 | 66.0 | 82.0 | 61.9 | 69.2 | 140 |
| 4 | XAV939 + A-769662 | 53.3 | 167 | 87.1 | 24.6 | 19.3 | 136 | 168 | 47.2 | 54.2 | 59.7 |
| 5 | NVP-TAE684 + OSU-03012 | 47.4 | - | 125 | - | 24.7 | 56.9 | 76.7 | 127 | 113 | 135 |
| 6 | XAV939 + FH535 | 159 | 195 | 108 | 76.8 | 117 | 62.7 | 519 | 219 | 94.2 | 88.3 |
| 7 | enzastaurin + L-779450 | 100 | 403 | 128 | 30.6 | 18.7 | 43.0 | 50.7 | 86.0 | 676 | 68.2 |
| 8 | L-779450 + perifosine | 46.8 | 189 | 363 | 31.0 | 59.6 | 281 | 164 | 213 | 535 | 184 |
| 9 | dorsomorphin + cisplatin | 46.3 | 67.1 | 203 | 180 | 224 | 124 | 71.1 | 139 | 445 | 105 |
| 10 | NVP-TAE684 + enzastaurin | 88.7 | 84.3 | 28.7 | 52.8 | 53.8 | 154 | 128 | 289 | 132 | 84.4 |
| 11 | perifosine + A-769662 | 41.4 | 87.3 | 142 | 86.2 | 25.5 | 153 | 130 | 110 | 326 | 132 |
| 12 | KU-0063794 + cisplatin | 209 | 283 | 91.2 | 96.3 | 93.7 | 65.3 | 104 | 57.6 | 112 | 354 |
| 13 | KU-0063794 + A-769662 | 26.0 | 46.2 | 118 | 44.4 | 88.1 | 116 | 93.9 | 316 | 50.5 | 58.3 |
| 14 | FH535 + perifosine | 73.1 | 168 | 267 | 118 | 120 | 165 | 186 | 78.0 | 136 | 103 |
| 15 | A-769662 + cisplatin | 58.0 | 36.9 | 322 | 155 | 430 | 157 | 191 | 31.0 | 142 | 64.0 |
| 16 | OSU-03012 + cisplatin | 161 | - | 136 | - | 229 | 70.8 | 30.5 | 65.2 | 196 | 91.0 |
| 17 | enzastaurin + perifosine | 73.7 | - | 271 | 133 | 34.4 | 233 | 122 | 39.4 | 41.0 | 117 |
| 18 | FH535 + L-779450 | 82.0 | 213 | 706 | 800 | 143 | 75.7 | 119 | 49.7 | 106 | 167 |
| 19 | KU-0063794 + XAV939 | 65.1 | 57.6 | 154 | 192 | 72.2 | 163 | 160 | 86.1 | 170 | 161 |
| 20 | GSK650394 + cisplatin | 78.0 | - | 105 | - | 363 | 60.8 | 95.4 | 138 | 163 | 22.7 |
| 21 | GSK650394 + XAV939 | 54.7 | 32.9 | 114 | 71.9 | 75.6 | 116 | 203 | 53.4 | 102 | 107 |
| 22 | L-779450 + GSK650394 | 66.2 | 64.3 | 445 | 128 | 60.2 | 111 | 99.2 | 123 | 169 | 128 |
| 23 | dorsomorphin + perifosine | 45.8 | 207 | 172 | 87.5 | 102 | 92.8 | 130 | 48.2 | 110 | 104 |
| 24 | FH535 + KU-0063794 | 51.4 | 83.3 | 187 | 100 | 66.0 | 263 | 55.2 | 192 | 202 | 181 |
| 25 | enzastaurin + GSK650394 | 172 | - | 78.2 | 74.3 | 42.8 | 143 | 164 | 70.3 | 142 | 223 |
| 26 | dorsomorphin + OSU-03012 | 60.8 | 5220 | 53.9 | 35.4 | 72.8 | 136 | 179 | 181 | 46.1 | 34.8 |
| 27 | NVP-TAE684 + cisplatin | 74.8 | 349 | 140 | 147 | 259 | 102 | 123 | 79.8 | 144 | 85.7 |
| 28 | FH535 + cisplatin | 225 | 319 | 52.7 | 83.2 | 1670 | 90.7 | 203 | 236 | 87.1 | 208 |
| 29 | dorsomorphin + KU-0063794 | 111 | 194 | 270 | 228 | 41.9 | 90.5 | 104 | 134 | 120 | 129 |
| 30 | NVP-TAE684 + KU-0063794 | 64.9 | 135 | 352 | 40.2 | 52.1 | 370 | 330 | 89.4 | 246 | 72.0 |
| 31 | NVP-TAE684 + L-779450 | 52.1 | 136 | 699 | 85.5 | 44.2 | 59.4 | 138 | 76.2 | 433 | 126 |
| 32 | A-769662 + dorsomorphin | 89.4 | 48.6 | 161 | 60.4 | 48.4 | 138 | 70.2 | 25.8 | 69.9 | 50.5 |
| 33 | KU-0063794 + enzastaurin | 193 | 43.2 | 102 | 137 | 54.8 | 235 | 85.7 | 45.4 | 163 | 74.1 |
| 34 | L-779450 + OSU-03012 | 58.0 | 2290 | 152 | 54.6 | 21.2 | 50.3 | 180 | 115 | 112 | 33.0 |
| 35 | XAV939 + NVP-TAE684 | 107 | 83.9 | 64.0 | 74.3 | 27.0 | 33.3 | 293 | 118 | 232 | 171 |
| 36 | perifosine + KU-0063794 | 48.7 | 110 | 102 | 88.1 | 23.4 | 81.9 | 119 | 61.9 | 380 | 152 |

Some entries from above, unchanged:

{"drugs": "XAV939 + NVP-TAE684", "MEL-HO": 107, "501mel": 83.9, "WM115": 64.0, "MZ2-MEL": 74.3, "UACC-257": 27.0, "RVH-421": 33.3, "COLO 800": 293, "IPC-298": 118, "WM451Lu": 232, "COLO 829": 171}
{"drugs": "dorsomorphin + cisplatin", "MEL-HO": 46.3, "501mel": 67.1, "WM115": 203, "MZ2-MEL": 180, "UACC-257": 224, "RVH-421": 124, "COLO 800": 71.1, "IPC-298": 139, "WM451Lu": 445, "COLO 829": 105}
{"drugs": "GSK650394 + XAV939", "MEL-HO": 54.7, "501mel": 32.9, "WM115": 114, "MZ2-MEL": 71.9, "UACC-257": 75.6, "RVH-421": 116, "COLO 800": 203, "IPC-298": 53.4, "WM451Lu": 102, "COLO 829": 107}
{"drugs": "dorsomorphin + KU-0063794", "MEL-HO": 111, "501mel": 194, "WM115": 270, "MZ2-MEL": 228, "UACC-257": 41.9, "RVH-421": 90.5, "COLO 800": 104, "IPC-298": 134, "WM451Lu": 120, "COLO 829": 129}
{"drugs": "L-779450 + OSU-03012", "MEL-HO": 58.0, "501mel": 2290, "WM115": 152, "MZ2-MEL": 54.6, "UACC-257": 21.2, "RVH-421": 50.3, "COLO 800": 180, "IPC-298": 115, "WM451Lu": 112, "COLO 829": 33.0}